Data source: PubChem BioAssay AID1259254 (NCATS, 2017)
Purpose: 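Genome-wide screen for genes that prevent DNA re-replication in cancer cells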 (primary screen). Cells: human HCT116 colorectal cancer cells. Reagent: single siRNA against human genes. Duration: 3 days. Detection: 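Imaged Hoechst DNA stain sorts each cell into a cycle phase by DNA amount; per plate, G2 fraction set to 0% for non-targeting and 100% for GMNN siRNA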. Direction: G2 robust z-score: higher = more G2 cells, more excess DNA replication. Rule for the call: 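Active siRNAs have a G2 robust z of 5 or more median absolute deviations over the median, which in these data means about 38% or higher of GMNN control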.
This is one part, drawn at random, of about 59,000 reagents. Over the whole deposit, about 1,550 (2.6%) are marked active. 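G2 share is only a proxy for re-replication; each gene was hit by three separate siRNAs, and active genes were retested.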 Reagents against one gene are numbered here. Not all columns of the deposit are shown. No sequences are given here. The record does not give: the amount of reagent.

G2 robust z-score, by target gene and reagent
RBM22 (GeneID 55696): #1 -0.101 inactive; #2 0.725 inactive; #3 -0.371 inactive
PPP1R3E (GeneID 90673): #1 4.66 inactive; #2 -1.36 inactive; #3 1.37 inactive
SLC26A6 (GeneID 65010): #1 -0.949 inactive; #2 0.413 inactive; #3 3.32 inactive
CHST13 (GeneID 166012): #1 -0.198 inactive; #2 -0.0443 inactive; #3 -0.0746 inactive
RCC1L (GeneID 81554): #1 1.63 inactive; #2 -0.348 inactive; #3 0.483 inactive; #4 0.307 inactive; #5 -0.713 inactive; #6 -0.647 inactive
CXorf65 (GeneID 158830): #1 -0.31 inactive; #2 -0.164 inactive; #3 -0.388 inactive
DRICH1 (GeneID 51233): #1 -0.734 inactive; #2 -1.12 inactive; #3 0.842 inactive
IRS2 (GeneID 8660): #1 1.88 inactive; #2 0.0715 inactive; #3 0.244 inactive
IGSF11 (GeneID 152404): #1 -0.197 inactive; #2 3.07 inactive; #3 -0.499 inactive
KCND1 (GeneID 3750): #1 0.589 inactive; #2 -0.412 inactive; #3 -1.13 inactive
ARHGAP26 (GeneID 23092): #1 -0.735 inactive; #2 1.18 inactive; #3 -1.76 inactive
CXXC4 (GeneID 80319): #1 -0.0257 inactive; #2 -0.245 inactive; #3 -0.388 inactive
RBM43 (GeneID 375287): #1 -0.723 inactive; #2 -0.431 inactive; #3 2.35 inactive
MRM3 (GeneID 55178): #1 0.197 inactive; #2 4.59 inactive; #3 -0.874 inactive

Reprinted from the entries so far, 7 entries:
G2 robust z-score, by target gene and reagent
DRICH1 (GeneID 51233): #3 0.842 inactive
IRS2 (GeneID 8660): #1 1.88 inactive; #2 0.0715 inactive; #3 0.244 inactive
IGSF11 (GeneID 152404): #1 -0.197 inactive; #2 3.07 inactive; #3 -0.499 inactive

Continued:
G2 robust z-score, by target gene and reagent
CAVIN2 (GeneID 8436): #1 -0.593 inactive; #2 -0.882 inactive; #3 -0.655 inactive
OR7A5 (GeneID 26659): #1 0.445 inactive; #2 3.77 inactive; #3 2.68 inactive
NDFIP1 (GeneID 80762): #1 3.92 inactive; #2 0.266 inactive; #3 -0.404 inactive
GDPD1 (GeneID 284161): #1 1.05 inactive; #2 0.626 inactive; #3 -0.799 inactive
ALDH7A1 (GeneID 501): #1 0.397 inactive; #2 5.4 active; #3 -0.492 inactive
RFNG (GeneID 5986): #1 0.665 inactive; #2 1.42 inactive; #3 -0.464 inactive
AP2B1 (GeneID 163): #1 0.0225 inactive; #2 -0.551 inactive; #3 0.255 inactive
GLTP (GeneID 51228): #1 -0.231 inactive; #2 1.35 inactive; #3 0.527 inactive
